Data source: PubChem BioAssay AID504784 (Drosophila RNAi Screening Center, 2011)
The deposit covers about 17,000 reagents; shown is a random part of those with a known target gene and a result. 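Each column is one replicate's B-score; the combined score over replicates was not deposited, so single values may mislead.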 The numbers tell different reagents against one gene apart. Names joined by + are all predicted targets of the reagent. Further read-outs or replicates are left out here. Reagent sequences are not shown.

- Purpose: 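Fly genes whose silencing alters how much lipid cells keep in droplets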 (primary screen)
- System: Drosophila Kc167 embryonic cells
- Reagent: long dsRNA against Drosophila genes, about 250 ng dsRNA per well
- Timing: 4 days
- Conditions: cells fed 400 µM oleic acid bound to BSA
- Read-out: 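Microscope images give a droplet-to-nucleus area ratio, taken as log and converted to a screen-wide B-score; higher values mean greater lipid storage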
- Scale: droplet/nuclear area B-score: higher = more stored lipid (overstorage)

The first 7 records, ahead of the listing:
Gene | dsRNA no. | droplet/nuclear area B-score, replicate 1 | droplet/nuclear area B-score, replicate 2
CG10337 (GeneID 35247) | 1 | 0.137 | -0.141
E23 (GeneID 43895) | 1 | 0.419 | -0.493
E23 (GeneID 43895) | 2 | 1.3 | 0.21
CG17283 (GeneID 42094) | 1 | -0.853 | -0.68
Tsp68C (GeneID 117407) | 1 | -1.78 | 0.347
Mst87F (GeneID 41693) | 1 | -0.13 | -0.272
NetB (GeneID 32400) | 1 | 2.65 | 2.19

Main list, repeating the preview:
Gene | dsRNA no. | droplet/nuclear area B-score, replicate 1 | droplet/nuclear area B-score, replicate 2
CG10337 (GeneID 35247) | 1 | 0.137 | -0.141
E23 (GeneID 43895) | 1 | 0.419 | -0.493
E23 (GeneID 43895) | 2 | 1.3 | 0.21
CG17283 (GeneID 42094) | 1 | -0.853 | -0.68
Tsp68C (GeneID 117407) | 1 | -1.78 | 0.347
Mst87F (GeneID 41693) | 1 | -0.13 | -0.272
NetB (GeneID 32400) | 1 | 2.65 | 2.19
CG4390 (GeneID 42396) | 1 | -0.696 | 0.0126
CG11437 (GeneID 40470) | 1 | 0.742 | -2.29
CG10804 (GeneID 31317) | 1 | -1.79 | 0.688
CG11920 (GeneID 43009) | 1 | 2.93 | 0.718
drl (GeneID 44355) | 1 | 1.21 | 1.29
Acp1 (GeneID 34052) | 1 | 0.0472 | 0.0536
CG9503 (GeneID 32424) | 1 | -0.271 | 0.959
CG9503 (GeneID 32424) | 2 | -0.137 | 0.399
Srp54k (GeneID 38593) | 1 | 0.616 | 0.472
Sxl + CG14425 (retired record) | 1 | -0.283 | 0.682
Sxl + CG14425 (retired record) | 2 | -0.724 | 1.29
Sxl + CG14425 (retired record) | 3 | 1.44 | -0.00611
blow (GeneID 35694) | 1 | -0.41 | 0.107
sqd (GeneID 41666) | 1 | -0.00177 | –
Plekhm1 (GeneID 37520) | 1 | 1.46 | 0.375
PIG-H (GeneID 40944) | 1 | 0.177 | 0.179
CG13476 (GeneID 39602) | 1 | 1.74 | 0.98
CG34347 (GeneID 5740668) | 1 | -0.201 | 2.69
CG34347 (GeneID 5740668) | 2 | -0.45 | 1.75
CG34347 (GeneID 5740668) | 3 | -1.18 | -0.463
CG34347 (GeneID 5740668) | 4 | -0.0255 | -1.49
Ski6 (GeneID 34721) | 1 | 0.00647 | 0.0427
Dif (GeneID 35045) | 1 | -0.78 | 0.606
CG14423 (GeneID 31287) | 1 | 0.0179 | -1.84
CG13694 (GeneID 33169) | 1 | 0.317 | -0.926
Sys1 (GeneID 41023) | 1 | -1.45 | -0.398
CG3349 (GeneID 39623) | 1 | -1.01 | 0.87
VhaPPA1-1 (GeneID 45247) | 1 | -0.179 | 2.66
CG15395 (GeneID 33447) | 1 | 1.48 | 2.23
ste24a (GeneID 36908) | 1 | -1.79 | –
rib (GeneID 44855) | 1 | -0.138 | 0.381
Rassf (GeneID 42734) | 1 | -0.546 | -0.544
CG32533 (GeneID 32933) | 1 | -2.87 | -0.734
CG32533 (GeneID 32933) | 2 | 1.31 | 3.77
Kat60 (GeneID 53566) | 1 | 0.863 | -0.282
CG15126 (GeneID 50202) | 1 | -1.48 | 0.241
CG18095 (GeneID 34823) | 1 | 0.038 | -0.682
FIG4 (GeneID 33658) | 1 | 0.106 | -0.38
lt (GeneID 3355130) | 1 | 0.505 | 0.427
Rtel1 (GeneID 31497) | 1 | -1.21 | 0.00954
UQCR-C2 (GeneID 39846) | 1 | 4.4 | 3.63
l(2)k01209 (GeneID 36953) | 1 | 0.292 | 0.335
CG8774 (GeneID 41635) | 1 | 0.224 | 0.155
Adi1 (GeneID 326189) | 1 | 0.953 | 0.459
Adi1 (GeneID 326189) | 2 | 0.669 | 0.267
Nepl16 (GeneID 43014) | 1 | -0.134 | -0.41
Osi23 (GeneID 43615) | 1 | -0.539 | -1.11
Not10 (GeneID 41552) | 1 | 1.24 | -0.0895
Ote (GeneID 37090) | 1 | 0.0522 | 3.38
CG34324 (GeneID 32302) | 1 | -1.75 | 1.74
CG34324 (GeneID 32302) | 2 | -0.211 | -0.0473
CarT (GeneID 35334) | 1 | -0.298 | 1.25
Osi17 (GeneID 40774) | 1 | -0.108 | -0.463
Axn (GeneID 43565) | 1 | 3 | –
sunz (GeneID 40811) | 1 | 0.0778 | 0.163
stg (GeneID 43466) | 1 | 2.35 | 0.674
CG34417 (GeneID 31591) | 1 | 0.292 | 0.56
CG34417 (GeneID 31591) | 2 | 0.868 | 1.38
CG31064 (GeneID 43277) | 1 | 0.295 | -0.9
CG31064 (GeneID 43277) | 2 | -3.57 | 2.64
CG31064 (GeneID 43277) | 3 | -1.97 | -0.824
CG31064 (GeneID 43277) | 4 | -0.542 | 0.318
SelT (GeneID 33725) | 1 | 3.15 | -0.142
CG7945 + yellow-k | 1 | 1.84 | 1.76
dgt2 (GeneID 34610) | 1 | -3.27 | 0.693
CG2021 (GeneID 38229) | 1 | -0.0349 | -1.72
CG15236 (GeneID 35595) | 1 | 0.163 | 0.0513
CG15236 (GeneID 35595) | 2 | -0.483 | -1.74
CG15236 (GeneID 35595) | 3 | 2.84 | 1.11
su(f) (GeneID 3354994) | 1 | -1.2 | 0.226
Kmn1 (GeneID 32102) | 1 | 0.754 | -0.812
CG43316 (GeneID 36326) | 1 | -1.34 | 1.67
CG43316 (GeneID 36326) | 2 | -0.327 | -0.0822
CG12540 (GeneID 32393) | 1 | 1 | 0.585
Obp59a (GeneID 37605) | 1 | 1.1 | 0.254
CG42284 (GeneID 37621) | 1 | 0.0767 | -0.0395
CG42284 (GeneID 37621) | 2 | 4.24 | 0.116
CG5381 (GeneID 34389) | 1 | 0.00553 | 0.218
Pkd2 (GeneID 34651) | 1 | 0.404 | 0.161
Gpo3 (GeneID 34776) | 1 | -1.22 | 0.0995
CG17271 (GeneID 42463) | 1 | 0.137 | -1.66
CG17271 (GeneID 42463) | 2 | 2.24 | 0.484
CG17271 (GeneID 42463) | 3 | -2.16 | 0.836
CG2256 (GeneID 31727) | 1 | -1.56 | -0.228
ex (GeneID 33218) | 1 | -0.0183 | 0.578
hll (GeneID 34822) | 1 | 1.14 | 1.19
coro (GeneID 35596) | 1 | 0.327 | -0.24
coro (GeneID 35596) | 2 | -2.85 | 0.294
Pus1 (GeneID 42440) | 1 | 0.0361 | 0.0265
Bin1 (GeneID 41965) | 1 | -0.0913 | -0.132
Prosbeta2 (GeneID 39628) | 1 | -3.45 | 2.13
pinta (GeneID 42635) | 1 | 0.115 | 0.362
CG9636 (GeneID 40967) | 1 | -1.88 | 1.69
CG15093 (GeneID 37166) | 1 | -0.382 | –
CG7213 (GeneID 38924) | 1 | 0.7 | -1.12
CG9752 (GeneID 37431) | 1 | -0.0017 | -1.13
slmb (GeneID 42504) | 1 | 0.269 | -0.686
mthl11 (GeneID 117467) | 1 | 0.506 | -0.0762
